Measurements: the supplement of paper PMC12819154, “High-throughput peptide-centric local stability assay extends protein–ligand identification to membrane proteins, tissues and bacteria” (Nature Structural & Molecular Biology, 2025)
Some of the results follow. Most values lie at the level of the controls, where differences are scatter.

Chains of the proteins cited; added tags and fusions are not shown. Lines headed by an entry give the natural chain unless they say otherwise; changes in a name come on top.
UniProt Q9D902: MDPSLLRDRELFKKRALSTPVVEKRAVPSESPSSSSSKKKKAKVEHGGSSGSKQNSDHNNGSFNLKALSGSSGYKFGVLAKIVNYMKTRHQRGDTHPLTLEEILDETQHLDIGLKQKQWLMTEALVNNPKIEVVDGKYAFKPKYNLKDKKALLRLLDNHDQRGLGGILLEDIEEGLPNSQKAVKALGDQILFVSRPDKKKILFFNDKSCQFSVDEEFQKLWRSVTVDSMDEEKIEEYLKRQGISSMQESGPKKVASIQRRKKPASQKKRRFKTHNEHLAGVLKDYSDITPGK
UniProt Q9D358: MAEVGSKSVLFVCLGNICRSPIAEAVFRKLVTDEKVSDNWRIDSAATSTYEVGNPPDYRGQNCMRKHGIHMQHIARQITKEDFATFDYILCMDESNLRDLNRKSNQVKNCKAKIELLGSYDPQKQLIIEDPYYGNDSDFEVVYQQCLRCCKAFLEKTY
UniProt Q9D289: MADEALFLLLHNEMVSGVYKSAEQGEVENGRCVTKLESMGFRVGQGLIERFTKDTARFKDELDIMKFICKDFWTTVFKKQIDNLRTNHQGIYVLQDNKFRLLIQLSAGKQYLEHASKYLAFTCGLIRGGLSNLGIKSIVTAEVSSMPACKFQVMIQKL
UniProt Q9D0F3: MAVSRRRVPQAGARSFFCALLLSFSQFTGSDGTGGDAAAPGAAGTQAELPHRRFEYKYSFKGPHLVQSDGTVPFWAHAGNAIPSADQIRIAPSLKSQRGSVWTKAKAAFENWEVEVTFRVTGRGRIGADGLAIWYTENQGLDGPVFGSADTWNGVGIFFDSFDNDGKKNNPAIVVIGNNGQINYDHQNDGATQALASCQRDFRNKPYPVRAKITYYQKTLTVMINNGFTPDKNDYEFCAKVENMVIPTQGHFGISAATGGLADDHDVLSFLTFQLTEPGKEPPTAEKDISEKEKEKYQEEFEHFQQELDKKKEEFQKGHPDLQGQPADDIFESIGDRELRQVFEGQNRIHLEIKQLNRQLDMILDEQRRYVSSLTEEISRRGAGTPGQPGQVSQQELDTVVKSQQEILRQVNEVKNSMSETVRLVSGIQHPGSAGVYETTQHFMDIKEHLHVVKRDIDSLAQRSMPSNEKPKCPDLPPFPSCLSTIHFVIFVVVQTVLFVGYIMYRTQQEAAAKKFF
UniProt Q9CYI4: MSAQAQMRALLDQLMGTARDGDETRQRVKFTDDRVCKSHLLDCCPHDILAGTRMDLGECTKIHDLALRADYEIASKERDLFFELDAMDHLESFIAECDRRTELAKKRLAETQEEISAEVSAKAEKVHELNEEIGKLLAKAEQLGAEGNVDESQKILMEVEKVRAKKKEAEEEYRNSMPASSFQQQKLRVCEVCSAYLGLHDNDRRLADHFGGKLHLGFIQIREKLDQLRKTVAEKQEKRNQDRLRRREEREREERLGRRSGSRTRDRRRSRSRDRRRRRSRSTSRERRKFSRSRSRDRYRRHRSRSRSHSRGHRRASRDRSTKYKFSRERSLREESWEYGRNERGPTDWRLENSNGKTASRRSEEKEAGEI
UniProt Q9CZP5: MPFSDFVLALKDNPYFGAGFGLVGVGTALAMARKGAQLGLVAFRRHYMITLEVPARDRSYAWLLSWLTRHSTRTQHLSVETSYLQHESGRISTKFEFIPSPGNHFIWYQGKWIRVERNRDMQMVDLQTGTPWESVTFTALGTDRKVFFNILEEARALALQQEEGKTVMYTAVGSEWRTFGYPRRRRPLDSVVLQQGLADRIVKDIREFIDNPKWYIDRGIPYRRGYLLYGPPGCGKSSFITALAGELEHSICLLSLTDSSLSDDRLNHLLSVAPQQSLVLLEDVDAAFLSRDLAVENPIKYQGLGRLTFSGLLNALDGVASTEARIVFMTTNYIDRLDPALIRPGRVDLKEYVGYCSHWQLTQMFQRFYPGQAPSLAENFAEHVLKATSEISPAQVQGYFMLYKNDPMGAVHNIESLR
UniProt Q9D7P6: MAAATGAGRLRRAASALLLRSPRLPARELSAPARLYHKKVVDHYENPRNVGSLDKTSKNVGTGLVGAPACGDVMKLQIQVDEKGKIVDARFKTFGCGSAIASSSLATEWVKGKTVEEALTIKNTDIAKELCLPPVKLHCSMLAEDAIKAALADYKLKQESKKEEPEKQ
UniProt Q9DBR1: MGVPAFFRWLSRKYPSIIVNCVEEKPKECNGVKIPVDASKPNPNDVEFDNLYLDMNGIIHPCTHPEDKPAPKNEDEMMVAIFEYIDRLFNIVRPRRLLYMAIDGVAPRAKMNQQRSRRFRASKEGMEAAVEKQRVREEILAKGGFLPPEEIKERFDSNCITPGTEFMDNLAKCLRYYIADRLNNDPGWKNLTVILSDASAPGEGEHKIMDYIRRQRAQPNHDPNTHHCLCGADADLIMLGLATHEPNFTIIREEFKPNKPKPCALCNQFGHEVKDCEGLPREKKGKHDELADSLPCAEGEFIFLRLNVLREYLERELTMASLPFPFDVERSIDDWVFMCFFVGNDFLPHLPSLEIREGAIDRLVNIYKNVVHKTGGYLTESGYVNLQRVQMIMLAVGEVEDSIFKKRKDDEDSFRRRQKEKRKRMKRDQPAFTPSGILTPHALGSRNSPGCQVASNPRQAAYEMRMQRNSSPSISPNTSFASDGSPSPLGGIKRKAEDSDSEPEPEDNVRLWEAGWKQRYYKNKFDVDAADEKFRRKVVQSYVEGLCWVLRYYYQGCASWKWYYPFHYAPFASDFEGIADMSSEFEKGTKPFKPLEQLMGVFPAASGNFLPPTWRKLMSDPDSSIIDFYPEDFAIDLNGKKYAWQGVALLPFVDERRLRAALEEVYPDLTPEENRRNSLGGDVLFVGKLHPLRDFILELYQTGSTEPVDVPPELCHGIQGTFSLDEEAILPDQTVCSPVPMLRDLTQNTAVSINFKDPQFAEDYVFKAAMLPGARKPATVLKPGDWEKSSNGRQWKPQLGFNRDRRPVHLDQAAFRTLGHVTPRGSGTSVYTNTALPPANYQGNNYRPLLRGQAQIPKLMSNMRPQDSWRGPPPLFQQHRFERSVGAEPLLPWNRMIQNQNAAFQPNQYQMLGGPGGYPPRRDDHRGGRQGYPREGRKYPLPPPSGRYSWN
UniProt Q9D958: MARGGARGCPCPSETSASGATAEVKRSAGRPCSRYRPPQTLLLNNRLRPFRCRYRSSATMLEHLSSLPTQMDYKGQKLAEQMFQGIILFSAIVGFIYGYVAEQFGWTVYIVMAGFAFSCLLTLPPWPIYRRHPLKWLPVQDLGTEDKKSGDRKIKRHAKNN
UniProt Q9CYR6: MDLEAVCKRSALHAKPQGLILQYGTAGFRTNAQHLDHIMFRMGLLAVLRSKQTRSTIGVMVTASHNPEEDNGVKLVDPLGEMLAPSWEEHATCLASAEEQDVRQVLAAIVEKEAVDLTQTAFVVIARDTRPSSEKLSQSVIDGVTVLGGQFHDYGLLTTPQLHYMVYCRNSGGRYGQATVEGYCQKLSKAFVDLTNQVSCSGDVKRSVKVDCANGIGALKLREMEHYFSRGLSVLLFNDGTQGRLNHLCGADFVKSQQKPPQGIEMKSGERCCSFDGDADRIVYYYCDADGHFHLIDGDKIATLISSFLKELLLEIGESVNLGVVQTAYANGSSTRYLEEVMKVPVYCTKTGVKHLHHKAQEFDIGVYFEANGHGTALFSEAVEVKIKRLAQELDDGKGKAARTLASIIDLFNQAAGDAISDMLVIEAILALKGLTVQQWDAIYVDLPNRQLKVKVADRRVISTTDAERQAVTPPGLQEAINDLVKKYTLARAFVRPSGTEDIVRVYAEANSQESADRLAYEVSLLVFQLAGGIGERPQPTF
UniProt Q9CZN7: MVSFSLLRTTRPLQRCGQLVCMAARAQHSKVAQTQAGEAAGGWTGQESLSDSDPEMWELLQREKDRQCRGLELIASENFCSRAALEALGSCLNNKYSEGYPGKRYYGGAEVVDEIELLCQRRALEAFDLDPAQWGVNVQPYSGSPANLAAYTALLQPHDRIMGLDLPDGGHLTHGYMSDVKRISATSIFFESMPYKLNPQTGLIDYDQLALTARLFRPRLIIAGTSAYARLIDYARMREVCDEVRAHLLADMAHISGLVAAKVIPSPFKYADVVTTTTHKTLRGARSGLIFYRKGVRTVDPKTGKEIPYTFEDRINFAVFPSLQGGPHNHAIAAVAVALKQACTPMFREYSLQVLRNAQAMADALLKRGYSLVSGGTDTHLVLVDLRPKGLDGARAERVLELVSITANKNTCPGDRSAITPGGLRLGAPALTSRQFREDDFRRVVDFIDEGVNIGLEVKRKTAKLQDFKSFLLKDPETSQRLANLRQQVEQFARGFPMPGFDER
UniProt Q9DBR0: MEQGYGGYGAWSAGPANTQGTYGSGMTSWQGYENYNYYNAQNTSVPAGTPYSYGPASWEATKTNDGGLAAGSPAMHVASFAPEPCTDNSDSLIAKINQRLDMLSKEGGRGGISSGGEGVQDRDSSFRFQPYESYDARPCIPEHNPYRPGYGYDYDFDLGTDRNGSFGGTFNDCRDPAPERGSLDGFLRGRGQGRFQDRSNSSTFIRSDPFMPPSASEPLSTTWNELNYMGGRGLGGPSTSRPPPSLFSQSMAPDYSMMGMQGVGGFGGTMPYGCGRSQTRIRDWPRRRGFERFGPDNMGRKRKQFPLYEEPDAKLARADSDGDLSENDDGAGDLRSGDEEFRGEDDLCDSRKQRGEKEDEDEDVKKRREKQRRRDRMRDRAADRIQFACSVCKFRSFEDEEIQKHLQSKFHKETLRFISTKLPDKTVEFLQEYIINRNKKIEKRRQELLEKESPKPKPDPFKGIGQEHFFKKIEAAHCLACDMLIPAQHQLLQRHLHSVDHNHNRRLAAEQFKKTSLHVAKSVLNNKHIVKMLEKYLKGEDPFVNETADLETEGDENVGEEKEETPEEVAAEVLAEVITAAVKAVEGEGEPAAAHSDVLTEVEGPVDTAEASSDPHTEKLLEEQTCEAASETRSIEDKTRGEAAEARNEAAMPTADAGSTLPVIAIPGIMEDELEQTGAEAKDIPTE
UniProt Q9D074: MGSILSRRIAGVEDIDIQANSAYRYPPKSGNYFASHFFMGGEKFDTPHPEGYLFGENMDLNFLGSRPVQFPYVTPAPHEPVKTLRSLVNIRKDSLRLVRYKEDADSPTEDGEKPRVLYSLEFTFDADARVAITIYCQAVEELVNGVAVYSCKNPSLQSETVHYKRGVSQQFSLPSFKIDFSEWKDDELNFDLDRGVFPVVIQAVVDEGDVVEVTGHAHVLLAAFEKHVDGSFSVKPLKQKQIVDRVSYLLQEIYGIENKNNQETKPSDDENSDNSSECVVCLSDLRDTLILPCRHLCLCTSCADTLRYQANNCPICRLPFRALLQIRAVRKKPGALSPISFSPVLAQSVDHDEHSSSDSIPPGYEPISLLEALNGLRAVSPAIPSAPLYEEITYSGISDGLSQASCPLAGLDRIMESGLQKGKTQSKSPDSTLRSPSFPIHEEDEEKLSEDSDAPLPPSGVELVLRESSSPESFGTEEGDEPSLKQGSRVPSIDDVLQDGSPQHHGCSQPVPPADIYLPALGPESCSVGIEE
UniProt Q9D6U8: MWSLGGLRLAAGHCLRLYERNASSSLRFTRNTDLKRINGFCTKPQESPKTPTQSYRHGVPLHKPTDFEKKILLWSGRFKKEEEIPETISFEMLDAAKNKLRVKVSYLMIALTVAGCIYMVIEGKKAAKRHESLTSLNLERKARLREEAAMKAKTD
UniProt Q9DAK9: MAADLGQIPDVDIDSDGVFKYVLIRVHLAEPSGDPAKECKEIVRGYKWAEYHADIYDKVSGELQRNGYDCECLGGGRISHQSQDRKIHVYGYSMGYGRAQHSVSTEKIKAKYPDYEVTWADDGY
UniProt Q9D5V5: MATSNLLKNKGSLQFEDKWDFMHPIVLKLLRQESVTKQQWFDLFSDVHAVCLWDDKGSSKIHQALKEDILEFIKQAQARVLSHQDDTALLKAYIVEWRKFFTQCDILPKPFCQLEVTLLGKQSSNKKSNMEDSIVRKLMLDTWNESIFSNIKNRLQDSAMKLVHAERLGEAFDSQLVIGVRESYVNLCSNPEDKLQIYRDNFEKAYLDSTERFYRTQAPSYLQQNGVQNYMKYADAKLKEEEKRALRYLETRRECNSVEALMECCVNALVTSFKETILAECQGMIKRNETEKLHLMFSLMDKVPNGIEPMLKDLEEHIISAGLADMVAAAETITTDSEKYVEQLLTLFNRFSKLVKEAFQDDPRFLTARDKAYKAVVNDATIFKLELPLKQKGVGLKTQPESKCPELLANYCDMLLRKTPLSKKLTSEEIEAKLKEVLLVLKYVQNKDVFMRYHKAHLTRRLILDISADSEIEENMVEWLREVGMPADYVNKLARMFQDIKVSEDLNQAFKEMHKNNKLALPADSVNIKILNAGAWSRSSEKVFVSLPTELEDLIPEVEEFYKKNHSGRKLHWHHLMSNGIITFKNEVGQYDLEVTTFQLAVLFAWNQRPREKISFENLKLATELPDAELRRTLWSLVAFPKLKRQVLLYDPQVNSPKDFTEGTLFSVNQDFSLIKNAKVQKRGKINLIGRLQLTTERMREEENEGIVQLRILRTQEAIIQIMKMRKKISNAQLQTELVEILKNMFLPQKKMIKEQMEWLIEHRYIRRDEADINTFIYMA

compound: CN[C@@H]1C[C@H]2O[C@@](C)([C@@H]1OC)n1c3ccccc3c3c4c(c5c6ccccc6n2c5c31)C(=O)NC4 [staurosporine]; test: log2 fold change of pooled soluble protein (PISA), ligand vs vehicle (log2 ratio); higher = more thermally stabilized; settings: ligand concentration: 20 uM; assay format: PISA pool 52.9/55.5/58.6 C

Target	log2 fold change of pooled soluble protein
UniProt Q9D0M1	-0.191
UniProt Q9D8X0	0.198
UniProt Q9D902	-0.215
UniProt Q9D7A8	0.0847
UniProt Q9D8E6	-0.227
UniProt Q9D0I9	0.0313
UniProt Q9D358	-0.0933
UniProt Q9D289	-0.0765
UniProt Q9D0F3	-0.066
UniProt Q9CYA6	0.213
UniProt Q9CYI4	0.173
UniProt Q9CZP5	0.00322
UniProt Q9D7P6	-0.0224
UniProt Q9CXT8	0.23
UniProt Q9DBH5	-0.0395
UniProt Q9DBR1	0.0154
UniProt Q9DBG6	-0.0863
UniProt Q9D958	0.0113

For reference, some entries already given:
Target	log2 fold change of pooled soluble protein
UniProt Q9D0F3	-0.066
UniProt Q9CYA6	0.213
UniProt Q9CYI4	0.173
UniProt Q9CZP5	0.00322
UniProt Q9D7P6	-0.0224
UniProt Q9CXT8	0.23
UniProt Q9DBH5	-0.0395
UniProt Q9DBR1	0.0154

Next entries

Target	log2 fold change of pooled soluble protein
UniProt Q9D0B6	-0.155
UniProt Q9CYR6	-0.106
UniProt Q9D281	-0.145
UniProt Q9CZN7	-0.00775
UniProt Q9D0P0	-0.0939
UniProt Q9DBR0	-0.0305
UniProt Q9DB16	-0.146
UniProt Q9D061	-0.171
UniProt Q9DB34	0.06
UniProt Q9D074	0.00318
UniProt Q9D6U8	0.0969
UniProt Q9D1G1	0.244
UniProt Q9CZU6	-0.0354
UniProt Q9DAK9	0.0988
UniProt Q9D5V5	0.157
UniProt Q9DBL7	0.0115
UniProt Q9D6J3	0.0891
UniProt Q9D6S7	-0.0343
